# Reference: PubChem BioAssay AID540276 (National Center for Advancing Translational Sciences (NCATS), 2011)
# The whole screen tested about 300,000 compounds, of which about 5,400 (1.8%) were called active. Inconclusive results, whose numbers are uncertain, are shown with a selection of clear calls. The call rests on the fitted dose curve; tested in HEK293 cells. A potency beside an inconclusive call is a rough fit, not a confirmed value.
# Assay: qHTS for inhibitors of binding or entry into cells for Marburg Virus
# Settings: Marburg virus pseudotyped entry inhibition, cell reporter; activity change, negative = inhibition: at 37.8 µM (top of the series) unless noted
# On the % scale 0 is the no-effect control and ±100 the full control effect; potency means the concentration at half of the fitted maximal effect.
Structure (SMILES),"activity change, negative = inhibition",Potency
COc1cc(NC(=O)c2ccccn2)cc(OC)c1OC,inactive: 0.527%,
CCCN(CCC)c1nc2ccccc2nc1[C@H](C#N)C(=O)O[C@@H](C)COC,,"inconclusive: 0.1 µM [activator, full curve, poor fit]"
O=C(O)c1cccc(N/N=C/c2ccc(F)c(F)c2)c1,,"inconclusive: 14.1 µM [inhibitor, single point]"
COC(=O)c1ccc(COC(=O)CNC(=O)C2CCCCC2)cc1,,"inconclusive: 6.31 µM [inhibitor, single point]"
CC(CCc1ccc(O)cc1)NCc1ccc(Cl)cc1Cl (stereo not given),,"inconclusive: 17.8 µM [inhibitor, single point]"
Cc1cccc2cc(C#N)c(NCCNS(=O)(=O)c3ccc4c(c3)OCCO4)nc12,,"inconclusive: 29.1 µM [inhibitor, single point]"
O=C(Nc1cc(Cl)ccc1Oc1ccccc1)c1ccccc1F,inactive: -1.65%,
COCCn1nnnc1C(c1cc(OC)ccc1OC)N1CCc2ccccc2C1 (stereo not given),,inactive
c1ccc(-c2nnc(NC3=NCCC3)o2)cc1,,"inconclusive: 8.91 µM [inhibitor, partial curve, poor fit]"
CN(Cc1cn(Cc2ccccc2)nc1-c1ccc2c(c1)OCO2)Cc1nccn1C,,"inconclusive: 35.5 µM [inhibitor, single point]"
N#Cc1ccccc1OCC(=O)NCC1(N2CCCCC2)CCCCC1,inactive: -17.1% [at 46.1 µM],
CCN(CC)S(=O)(=O)c1ccc(N2CCN(c3cccc(OC)c3)CC2)c([N+](=O)[O-])c1,,"inconclusive: 5.62 µM [inhibitor, partial curve, poor fit]"
CCOC(=O)N1CCN(C(=O)c2cc3n(n2)C(C(F)(F)F)CC(c2ccc4c(c2)OCO4)N3)CC1 (stereo not given),,"inconclusive: 35.5 µM [inhibitor, single point]"
COc1ccc(N2C(=O)c3ccccc3NC23C(=O)N(C)c2ccccc23)cc1 (stereo not given),inactive: -1.11%,
COc1ccccc1CNC(=O)c1ccc2nc(N3CCCCC3)sc2c1,,"inconclusive: 5.62 µM [inhibitor, single point]"
Cc1ccc(C)c(N2CCN(c3c(CN4CCCC4)c(=O)oc4ccccc34)CC2)c1,,"inconclusive: 6.31 µM [inhibitor, partial curve, poor fit]"
Cc1sc(NC(=O)/C=C/c2ccco2)c(C(=O)O)c1C,,"inconclusive: 8.91 µM [inhibitor, partial curve, poor fit]"
CN(C)/C=N/c1nc(-c2ccc3c(c2)OCO3)cs1,inactive: -7.88% [at 46.1 µM],
N#Cc1ccc(/C=N/NC(=O)c2cc(-c3cccs3)nc3ccccc23)cc1,,active: 6.31 µM
O=[N+]([O-])c1ccc(N2CCCC2)cc1N1CCCC1,,"inconclusive: 13 µM [inhibitor, partial curve, poor fit]"
Cc1ccc(S(=O)(=O)N(C)C)cc1NC(=S)NC(=O)C12CC3CC(CC(C3)C1)C2,,"inconclusive: 0.1 µM [inhibitor, full curve, poor fit]"
Cc1ccc(CCNC(=O)c2ccc3c(Cl)c4c(nc3c2)CCCC4)cc1,inactive: 9.39% [at 46.1 µM],
CC(C)[C@H](NC(=O)c1ccco1)C(=O)OCC(=O)NC12CC3CC(CC(C3)C1)C2,inactive: 6.27%,
COc1cc(NC(=O)CCCl)cc(-n2cnnn2)c1,,"inconclusive: 0.708 µM [inhibitor, full curve, poor fit]"

Structure (SMILES),"activity change, negative = inhibition",Potency
CC(C)(CC(=O)N1CCN(c2ccc(Cl)cc2)CC1)CC1=NS(=O)(=O)c2ccccc2N1,,"inconclusive: 12.6 µM [inhibitor, partial curve, poor fit]"
COCC(=O)Nc1c(C(=O)N2CCCC2)oc2ccccc12,,"inconclusive: 2.82 µM [activator, partial curve, poor fit]"
O=C(c1ccco1)N1CCN(C(=O)c2cnn3c2NC(c2cccs2)CC3C(F)(F)F)CC1 (stereo not given),,inactive
CC(C)N(Cc1nccn1C)C(=O)c1ccc2oc(Cc3ccccc3)nc2c1,inactive: 22.5% [at 46.1 µM],
Cc1ccc2nc(/C(C#N)=C/c3ccc(-c4cccc([N+](=O)[O-])c4)o3)[nH]c2c1,inactive: 5.49%,
CC(C)(C)C(=O)NC(=S)Nc1cccc(C(=O)O)c1,,"inconclusive: 10 µM [activator, partial curve, poor fit]"
C=CCn1c(C)cc(-c2csc(NCC)n2)c1C,,"inconclusive: 1.41 µM [inhibitor, partial curve, poor fit]"
Cc1cc(OCCn2nc(C(=O)O)c3ccccc3c2=O)ccc1C(C)C,,"inconclusive: 11.2 µM [inhibitor, single point]"
O=C(COC(=O)c1ccco1)NCc1ccc(F)cc1,inactive: -5.57% [at 46.1 µM],
CCCCn1c(N)c(N(CCC(C)C)C(=O)c2ccc3c(c2)OCO3)c(=O)[nH]c1=O,,"inconclusive: 6.31 µM [activator, single point]"
CCOc1ccccc1-c1noc(CSc2nnc(-c3ccccc3)n2-c2ccc(F)cc2)n1,,"inconclusive: 35.5 µM [inhibitor, single point]"
COc1ccc(NC(=O)CCCOc2ccc(Cl)c(C)c2)cc1S(=O)(=O)N1CCOCC1,,"inconclusive: 25.1 µM [inhibitor, single point]"
CSc1ccc(/C=C/C(=O)c2ccc(NC(C)=O)cc2)cc1,inactive: -0.622%,
Cc1ccc(-c2csc3ncnc(N4CCN(C(=O)c5ccco5)CC4)c23)cc1,inactive: -30.3%,
CC(Oc1ccc(Cl)cc1)C(=O)Nc1ccccc1N1CCOCC1 (stereo not given),,active: 12.6 µM
COC(=O)c1c(NC(=O)c2nc(SCc3ccc(F)cc3)ncc2Cl)sc2c1CCCC2,inactive: 16.4% [at 46.1 µM],
O=C(NCC(c1ccco1)N1CCN(c2ccccc2F)CC1)C(=O)NC1CCCC1 (stereo not given),inactive: 1.76%,
Cn1nnnc1SCCCNCc1cc(Cl)ccc1OCc1ccc(F)cc1,,"inconclusive: 17.8 µM [inhibitor, single point]"
Cc1ccc(S(=O)(=O)NC(C(=O)N2CCOCCOCCOCCOCC2)C(C)C)cc1 (stereo not given),inactive: -2.26% [at 46.1 µM],
CCCOc1ccc(CNC(=S)NCc2ccc(OC(C)C)cc2)cc1,,"inconclusive: 35.5 µM [inhibitor, single point]"
O=c1[nH]c(=O)n(-c2ccc(F)cc2)c2c1C(C(F)(F)F)(C(F)(F)F)N=C(c1ccc(F)cc1)N2,,"inconclusive: 7.08 µM [inhibitor, partial curve, poor fit]"
O=S(=O)(NCC(c1ccco1)N1CCN(c2ccccc2F)CC1)c1ccc(F)cc1 (stereo not given),,"inconclusive: 0.146 µM [inhibitor, full curve, poor fit]"
CCOc1nc(NC2CCCCC2)nc(NC(C)(C)C)n1,,"inconclusive: 11.2 µM [inhibitor, single point]"
Cc1nnc(NC(=O)c2ccco2)s1,inactive: 2.15%,

# Reprinted at random: three compounds from above.
Structure (SMILES),"activity change, negative = inhibition",Potency
COc1ccc(NC(=O)CCCOc2ccc(Cl)c(C)c2)cc1S(=O)(=O)N1CCOCC1,,"inconclusive: 25.1 µM [inhibitor, single point]"
Cn1nnnc1SCCCNCc1cc(Cl)ccc1OCc1ccc(F)cc1,,"inconclusive: 17.8 µM [inhibitor, single point]"
COC(=O)c1c(NC(=O)c2nc(SCc3ccc(F)cc3)ncc2Cl)sc2c1CCCC2,inactive: 16.4% [at 46.1 µM],

# (next part)

Structure (SMILES),"activity change, negative = inhibition",Potency
Cc1cccc(NS(=O)(=O)c2ccc(NC(=O)N3CCCCC3)cc2)c1,,"inconclusive: 3.16 µM [inhibitor, single point]"
CCN(CC)S(=O)(=O)c1ccc(C)c(NC(=O)COc2ccc(Cl)cc2Br)c1,,"inconclusive: 2.82 µM [inhibitor, full curve, poor fit]"
c1ccc2cc(CSCc3nc4ccccc4[nH]3)ccc2c1,,"inconclusive: 0.355 µM [activator, partial curve, poor fit]"
Cc1cc(C)c(NC(=O)c2ccc3nccnc3c2)c(C)c1,inactive: 0.301% [at 46.1 µM],
COc1ccc(CNC(=O)C2CCCN(S(=O)(=O)c3cccc4nsnc34)C2)cc1 (stereo not given),,"inconclusive: 17.8 µM [inhibitor, single point]"
CCOC(=O)c1c(C)n(C)c2ccc(O)c(CN3CCC(C)CC3)c12,,active: 11.2 µM
CC(=O)N1CCN(c2ccc(NC(=O)c3cccc(Cl)c3Cl)cc2)CC1,,"inconclusive: 17.8 µM [activator, single point]"
C1=C(CCNCC2CC2)CCCC1,,"inconclusive: 0.058 µM [inhibitor, single point]"
Cc1cccc(OP(=O)(Nc2ccc(F)cc2)Oc2cccc(C)c2)c1,,"inconclusive: 15.8 µM [inhibitor, partial curve, poor fit]"
Cc1ccc(CNc2ccc3c(c2)OCO3)cc1,,"inconclusive: 14.6 µM [inhibitor, partial curve, poor fit]"
O=C(CCn1nc(-c2ccccc2)c2ccccc2c1=O)NN1CCOCC1,,"inconclusive: 5.62 µM [inhibitor, partial curve, poor fit]"
COc1cc(S(=O)(=O)NCc2ccccn2)c(OC)cc1Cl,inactive: -0.128%,
COC(=O)n1c(=O)oc2cc(S(=O)(=O)N3CCCCC3)ccc21,,"inconclusive: 23.1 µM [activator, single point]"
CCn1c(=O)c2ccccc2n(Cc2cccc([N+](=O)[O-])c2)c1=O,inactive: 2.84% [at 46.1 µM],
c1ccc(CC2CCN(c3nc4ccccc4n4cnnc34)CC2)cc1,,"inconclusive: 14.1 µM [activator, partial curve, poor fit]"
COc1ccc(NC(=O)CSc2nn3c(=O)c(C)nnc3s2)cc1,inactive: 1.13% [at 46.1 µM],
Cc1ccc(C(=O)Nc2ccc(C(=O)N/N=C/c3cccnc3)cc2)cc1,inactive: -7.7% [at 46.1 µM],
O=C(c1cccc([N+](=O)[O-])c1)C12CN3CN(CN(C3)C1)C2,inactive: 27% [at 46.1 µM],
CCN1/C(=C/C(C)=C/c2sc3ccccc3[n+]2CC)Sc2ccccc21,,active: 1.58 µM
O=[N+]([O-])c1ccc(CSc2ccc(S(=O)(=O)N3CCCCCC3)cn2)cc1,,"inconclusive: 12.6 µM [inhibitor, partial curve]"
O=C(Nc1nc(=O)c2ccccc2s1)c1ccc(F)cc1,,"inconclusive: 0.411 µM [activator, partial curve, poor fit]"
CCOC(=O)/C(=N/O)C1=NC(C)(C)Cc2cc(C)c(C)cc21,,"inconclusive: 35.5 µM [inhibitor, single point]"
